{"source": "paper PMC8432861", "binders": {"B1": {"name": "endogenous Ubc12 (Raw264.7) (enzyme, UniProt P61082 1-183)", "chain": "MIKLFSLKQQKKEEESAGGTKGSSKKASAAQLRIQKDINELNLPKTCDISFSDPDDLLNFKLVICPDEGFYKSGKFVFSFKVGQGYPHDPPKVKCETMVYHPNIDLEGNVCLNILREDWKPVLTINSIIYGLQYLFLEPNPEDPLNKEAAEVLQNNRRLFEQNVQRSMRGGYIGSTYFERCLK"}, "B2": {"name": "FLAG-tagged human IRF3 (protein, UniProt Q14653 1-427)", "chain": "MGTPKPRILPWLVSQLDLGQLEGVAWVNKSRTRFRIPWKHGLRQDAQQEDFGIFQAWAEATGAYVPGRDKPDLPTWKRNFRSALNRKEGLRLAEDRSKDPHDPHKIYEFVNSGVGDFSQPDTSPDTNGGGSTSDTQEDILDELLGNMVLAPLPDPGPPSLAVAPEPCPQPLRSPSLDNPTPFPNLGPSENPLKRLLVPGEEWEFEVTAFYRGRQVFQQTISCPEGLRLVGSEVGDRTLPGWPVTLPDPGMSLTDRGVMSYVRHVLSCLGGGLALWRAGQWLWAQRLGHCHTYWAVSEELLPNSGHGPDGEVPKDKEGGVFDLGPFIVDLITFTEGSGRSPRYALWFCVGESWPQDQPWTKRLVMVKVVPTCLRALVEMARVGGASSLENTVDLHISNSHPLSLTSDQYKAYLQDLVEGMDFQGPGES"}}, "key": {"[1]": {"target": "T1, endogenous IRF7 (Raw264.7) (mouse (endogenous in Raw264.7)) (UniProt P70434)", "T1 sequence": "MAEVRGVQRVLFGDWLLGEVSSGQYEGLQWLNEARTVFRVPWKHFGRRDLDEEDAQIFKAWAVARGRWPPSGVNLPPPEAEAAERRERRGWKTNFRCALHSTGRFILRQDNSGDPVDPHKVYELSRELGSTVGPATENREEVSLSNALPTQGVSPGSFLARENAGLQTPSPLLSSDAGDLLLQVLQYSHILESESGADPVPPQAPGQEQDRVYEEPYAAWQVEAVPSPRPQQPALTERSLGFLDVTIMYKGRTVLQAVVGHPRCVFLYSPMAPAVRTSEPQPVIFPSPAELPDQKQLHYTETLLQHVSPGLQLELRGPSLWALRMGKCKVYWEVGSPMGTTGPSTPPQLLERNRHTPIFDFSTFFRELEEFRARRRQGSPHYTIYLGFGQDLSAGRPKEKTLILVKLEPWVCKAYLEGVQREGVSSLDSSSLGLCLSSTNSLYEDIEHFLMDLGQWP", "test": "co-IP; endogenous proteins in SeV-infected Raw264.7; IP with an anti-IRF7 antibody or an anti-Ubc12 antibody, control rabbit IgG; immunoblot"}, "[2]": {"target": "T2, FLAG-Myc-tagged murine IRF7 K3R mutant (K398R, K400R, K406R) (murine) (UniProt P70434)", "T2 sequence": "T1 sequence with K398R, K400R, K406R", "test": "co-IP; HEK-293T transfected with expression vectors for 24 h, then infected with SeV for 6 h or left untreated; IP lysis buffer (10mM Tris-HCl, pH 7.5, 2mM EDTA, 1% NP40, 150mM NaCl); immunoblot"}, "[3]": {"target": "T3, FLAG-Myc-tagged murine IRF7 WT (murine) (UniProt P70434)", "T3 sequence": "T1 sequence", "test": "co-IP; HEK-293T transfected with expression vectors for 24 h, then infected with SeV for 6 h or left untreated; IP lysis buffer (10mM Tris-HCl, pH 7.5, 2mM EDTA, 1% NP40, 150mM NaCl); immunoblot"}}, "note": "Residue numbers refer to the chain shown, from its start. No constants are given. Whether binding was seen depends on the method and setting. Binding seen in cells or lysates may run through a third protein. Some entries that bind do so weakly or less than the wild type. For part of these data: Where a sequence is shown, tags or fusion partners need not be part of it.", "data": [{"binder": "B1", "values": [{"measurement": "binding", "setting": "[1]", "result": "binds weakly"}]}, {"binder": "B2", "values": [{"measurement": "binding", "setting": "[2]", "result": "binds"}, {"measurement": "binding", "setting": "[3]", "result": "binds"}]}]}
